Results from patent US20230227903.
For at least one entry, the source does not settle the construct or the ends of the probe. Tags and fusion partners may be left off the protein sequences shown.

Tests used:
[1] = biological target: T1, Dda helicase (Enterobacteria phage T4) (UniProt P32270); assay: activity assay; settings: iSp18, BNA in SEQ 30, 30 x 3' C3 spacers in SEQ 33, median translocation speed, nanopore
T1 sequence (limits assumed): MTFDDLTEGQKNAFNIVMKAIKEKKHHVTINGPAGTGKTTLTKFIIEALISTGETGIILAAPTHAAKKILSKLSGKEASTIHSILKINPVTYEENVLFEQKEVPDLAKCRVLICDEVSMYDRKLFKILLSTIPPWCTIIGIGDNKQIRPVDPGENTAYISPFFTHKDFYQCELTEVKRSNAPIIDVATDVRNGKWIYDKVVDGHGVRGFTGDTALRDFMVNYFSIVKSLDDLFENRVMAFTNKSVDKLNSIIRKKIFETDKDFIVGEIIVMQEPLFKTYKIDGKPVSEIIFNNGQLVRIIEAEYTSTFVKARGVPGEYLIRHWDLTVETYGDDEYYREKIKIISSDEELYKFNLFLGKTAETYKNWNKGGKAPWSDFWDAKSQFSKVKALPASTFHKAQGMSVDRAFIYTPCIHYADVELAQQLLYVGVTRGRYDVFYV

[2] = biological target: T1, Dda helicase (Enterobacteria phage T4); assay: binding assay; settings: 3.6 kb SEQ 20 analyte
[3] = biological target: T2, Dda helicase closed with bismaleimide/disulfide linker (BMOE) (Enterobacteria phage T4) (UniProt P32270); assay: activity assay; settings: iSp9, BNA in SEQ 69, median time between re-reads, 180 mV, variant of Y-adapter C3 leader SEQ 70
T2 sequence (limits assumed): T1 sequence (limits assumed)

GTTATTCAAGACTTCTTTAATACACTTTTTTTTTTAATGTACTTCGTTCAGTTACGTATTGCTTTGGCGTCTGCTTGGGTGTTTAACCT / GGTTAAACACCCAAGCAGACGCCTTTGAGGCGAGCGGTCAA / GCAATACGTAACTGAACGAAGTACATT / GTGTATTAAAGAAGTCTTGAATAAC [Y-adapter Examples 6-8]
activity on this sequence ([1]; 120 mV, lambda fragments ligated): 319 bp/s | activity on this sequence ([1]; 140 mV): 259 bp/s | activity on this sequence ([1]; 160 mV): 196 bp/s

GTTATTCAAGACTTCTTTAATACACTTTTTTTTTTAATGTACTTCGTTCAGTTACGTATTGCTTTGGCGTCTGCTTGGGTGTTTAACCT / GGTTAAACACCCAAGCAGACGCCTTTGAGGCGAGCGGTCAATTTTTTTTTTTTTTTTTTTT / GCAATACGTAACTGAACGAAGTACATT / GTGTATTAAAGAAGTCTTGAATAAC [Y-adapter Example 5]
binding result ([2]; iSp18, BNA in SEQ 30 and 31, loaded and stalled, controlled movement after destalling): binds

GTTATTCAAGACTTCTTTAATACACTTTTTTTTTTAATGTACTTCGTTCAGTTACGTATTGCTTTGGCGTCTGCTTGGGTGTTTAACCT / GTGTATTAAAGAAGTCTTGAATAACTTTGAGGCGAGCGGTCAA / TTTGCAATACGTAACTGAACGAAGTACATT / GGTTAAACACCCAAGCAGACGCCTTTUUUUUU [Y-adapter leader SEQ 71]
activity on this sequence ([3]; mU x6 then C3 spacers, dropback 812 bases): 123 s

GTTATTCAAGACTTCTTTAATACACTTTTTTTTTTAATGTACTTCGTTCAGTTACGTATTGCTTTGGCGTCTGCTTGGGTGTTTAACCT / GTGTATTAAAGAAGTCTTGAATAACTTTGAGGCGAGCGGTCAA / TTTGCAATACGTAACTGAACGAAGTACATT / GGTTAAACACCCAAGCAGACGCCUU [Y-adapter leader SEQ 72]
activity on this sequence ([3]; mU x2 then C3 spacers, dropback 724 bases): 79.4 s

TTTTTTTTTTAATGTACTTCGTTCAGTTACGTATTGCT / GCAATACGTAACTGAACGAAGTACATTTTTGAGGCGAGCGGTCAATTTTTTTTTTTTTTTTTTTT [Y-adapter Example 1]
binding result ([2]; 5' biotin-TEG, iSp18 on top strand, BNA A, MeC, A, T, T in bottom strand, loaded and stalled on adapter, 5'-3' translocation out of nanopore after destalling): binds
